These results are taken from publication PMC4165403.

Chains of the proteins cited; added tags and fusions are not shown. Lines headed by an entry give the natural chain unless they say otherwise; changes in a name come on top. A line that says so, or that is headed by a name, gives the form on record, which may keep a tag or linker.
GFP-tagged Abi1 (Q8IZP0, form named): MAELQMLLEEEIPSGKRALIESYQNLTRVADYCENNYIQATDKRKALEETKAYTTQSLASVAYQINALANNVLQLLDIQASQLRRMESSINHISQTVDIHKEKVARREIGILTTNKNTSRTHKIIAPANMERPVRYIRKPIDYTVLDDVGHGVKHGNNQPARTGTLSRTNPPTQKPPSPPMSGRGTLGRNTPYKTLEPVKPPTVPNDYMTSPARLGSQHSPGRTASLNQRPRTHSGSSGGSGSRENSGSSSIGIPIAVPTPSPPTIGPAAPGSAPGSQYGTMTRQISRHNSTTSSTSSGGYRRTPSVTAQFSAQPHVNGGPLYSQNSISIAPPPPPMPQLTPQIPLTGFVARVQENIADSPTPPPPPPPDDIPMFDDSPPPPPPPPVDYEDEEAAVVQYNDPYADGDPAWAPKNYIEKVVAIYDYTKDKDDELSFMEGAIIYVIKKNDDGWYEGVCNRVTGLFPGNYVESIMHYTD
GFP-tagged Abi1ΔEVH1 (Q8IZP0, form named): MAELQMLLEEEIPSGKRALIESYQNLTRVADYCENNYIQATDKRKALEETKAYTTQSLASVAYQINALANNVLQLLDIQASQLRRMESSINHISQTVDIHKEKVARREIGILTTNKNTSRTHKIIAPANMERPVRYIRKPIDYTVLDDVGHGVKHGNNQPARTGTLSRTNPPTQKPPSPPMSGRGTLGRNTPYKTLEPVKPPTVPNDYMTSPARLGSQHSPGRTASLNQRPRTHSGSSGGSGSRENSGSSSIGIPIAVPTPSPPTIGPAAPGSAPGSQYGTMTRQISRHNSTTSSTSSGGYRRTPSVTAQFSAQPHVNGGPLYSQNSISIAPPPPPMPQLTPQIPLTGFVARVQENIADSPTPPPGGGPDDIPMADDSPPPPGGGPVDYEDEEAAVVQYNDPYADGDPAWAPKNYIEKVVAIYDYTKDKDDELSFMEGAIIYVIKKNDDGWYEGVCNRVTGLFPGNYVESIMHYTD
UniProt Q96F07: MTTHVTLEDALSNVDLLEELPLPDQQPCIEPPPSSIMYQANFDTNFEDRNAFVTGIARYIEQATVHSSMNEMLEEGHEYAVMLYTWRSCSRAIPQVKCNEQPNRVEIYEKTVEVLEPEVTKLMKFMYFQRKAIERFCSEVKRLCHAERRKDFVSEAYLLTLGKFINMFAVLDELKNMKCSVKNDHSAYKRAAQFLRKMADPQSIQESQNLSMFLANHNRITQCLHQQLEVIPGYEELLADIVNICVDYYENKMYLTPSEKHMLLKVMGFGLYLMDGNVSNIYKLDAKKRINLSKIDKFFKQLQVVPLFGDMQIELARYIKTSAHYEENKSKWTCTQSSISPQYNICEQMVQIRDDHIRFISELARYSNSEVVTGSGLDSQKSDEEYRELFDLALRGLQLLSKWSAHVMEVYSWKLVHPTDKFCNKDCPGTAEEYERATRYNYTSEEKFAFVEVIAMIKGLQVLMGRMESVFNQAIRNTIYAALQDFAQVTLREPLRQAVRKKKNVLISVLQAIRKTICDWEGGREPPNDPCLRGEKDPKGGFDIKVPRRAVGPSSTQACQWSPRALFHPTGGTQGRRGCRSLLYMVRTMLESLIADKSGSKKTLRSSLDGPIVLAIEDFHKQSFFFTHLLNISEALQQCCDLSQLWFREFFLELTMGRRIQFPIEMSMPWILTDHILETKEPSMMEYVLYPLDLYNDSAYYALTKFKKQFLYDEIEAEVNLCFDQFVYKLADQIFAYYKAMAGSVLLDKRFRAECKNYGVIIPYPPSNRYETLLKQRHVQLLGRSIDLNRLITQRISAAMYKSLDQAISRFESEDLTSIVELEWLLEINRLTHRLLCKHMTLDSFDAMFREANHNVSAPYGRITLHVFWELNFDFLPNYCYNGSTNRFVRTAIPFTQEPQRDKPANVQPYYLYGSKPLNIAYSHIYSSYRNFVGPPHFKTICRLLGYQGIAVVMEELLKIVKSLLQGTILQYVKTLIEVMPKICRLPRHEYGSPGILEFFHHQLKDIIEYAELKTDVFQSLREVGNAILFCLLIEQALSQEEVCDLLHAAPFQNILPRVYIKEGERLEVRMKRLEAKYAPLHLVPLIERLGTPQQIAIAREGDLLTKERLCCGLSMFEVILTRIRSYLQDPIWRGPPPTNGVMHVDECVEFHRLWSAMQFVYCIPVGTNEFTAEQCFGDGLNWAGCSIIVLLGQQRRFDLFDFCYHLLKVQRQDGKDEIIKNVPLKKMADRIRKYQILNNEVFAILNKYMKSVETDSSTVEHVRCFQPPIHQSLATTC

Results are given in words; binding and its absence hold for the method and conditions named. In cells and extracts the contact can be indirect. Some entries that bind do so weakly or less than the wild type.

For assay [1], the target named is GFP-tagged Abi1 (human) (UniProt Q8IZP0). Nature of the assay: co-IP; immunoprecipitation of GFP-tagged Abi1 or Abi1ΔEVH1 from lysates of transfected cells, immunoblot for Mena and PIR121.
For assay [2], the target named is GFP-tagged Abi1ΔEVH1 (human) (UniProt Q8IZP0). The assay is described as above.

Take “PIR121 (in lysate of cells expressing GFP-Abi1) (from UniProt Q96F07 1-1278)”: the binding result in assay [1] and in assay [2] was “binds” in each case.
